From PubChem BioAssay AID505 (SGCOxCompounds, 2006) come the findings set out here.

The chains behind the UniProt entries cited, without tags or fusion partners. Where a name states a change or a piece, a line headed by the entry shows the natural chain unless it says otherwise.
UniProt Q9P1W9: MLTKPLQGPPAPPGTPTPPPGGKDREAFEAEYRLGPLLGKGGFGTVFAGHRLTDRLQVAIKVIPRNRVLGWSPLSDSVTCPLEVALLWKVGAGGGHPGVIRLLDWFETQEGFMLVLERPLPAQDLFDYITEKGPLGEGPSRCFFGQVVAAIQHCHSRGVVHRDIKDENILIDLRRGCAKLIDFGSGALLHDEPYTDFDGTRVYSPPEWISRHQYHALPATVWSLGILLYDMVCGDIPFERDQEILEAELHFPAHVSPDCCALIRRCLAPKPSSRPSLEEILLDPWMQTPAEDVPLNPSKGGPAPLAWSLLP

The assay addresses Serine/threonine-protein kinase pim-2 (Homo sapiens) (UniProt Q9P1W9). Nature of the assay: compound-induced PIM2 thermal stabilization – biophysical, human, melting temperature shift (AID 505). As to conditions: Recombinant PIM2 thermal shift, Tm change; at 10 µM; buffer 10 mM HEPES; pH 7.5; NaCl 150 mM; with 50 µM L-Arg/L-Glu (1:1); active compounds read high.

On to `CCC(CO)Nc1ccc2ncc(-c3cccc(NC(C)=O)c3)n2n1` (configuration not stated), for which the Tm shift was 3.21 Celsius. As for `CCC(CO)Nc1ccc2ncc(-c3cccc(Cl)c3)n2n1` (configuration not stated), the figure is 5.46 Celsius.
